Results published in PubChem BioAssay AID1347422 (Sanford-Burnham Center for Chemical Genomics, 2020).
The full ranking holds about 1,000 compounds; the median of “thermal shift dTm” is about 0.19, and the highest 2% start at about 1.7. The list shows a part of the results. The source made the active and inactive calls.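 Rule for the calls: active = mean rise in melting temperature of at least 1 degC over same-plate control wells; inactive = below that, where a call was filed.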

Chains of the proteins cited; added tags and fusions are not shown. Lines headed by an entry give the natural chain unless they say otherwise; changes in a name come on top.
UniProt O00391: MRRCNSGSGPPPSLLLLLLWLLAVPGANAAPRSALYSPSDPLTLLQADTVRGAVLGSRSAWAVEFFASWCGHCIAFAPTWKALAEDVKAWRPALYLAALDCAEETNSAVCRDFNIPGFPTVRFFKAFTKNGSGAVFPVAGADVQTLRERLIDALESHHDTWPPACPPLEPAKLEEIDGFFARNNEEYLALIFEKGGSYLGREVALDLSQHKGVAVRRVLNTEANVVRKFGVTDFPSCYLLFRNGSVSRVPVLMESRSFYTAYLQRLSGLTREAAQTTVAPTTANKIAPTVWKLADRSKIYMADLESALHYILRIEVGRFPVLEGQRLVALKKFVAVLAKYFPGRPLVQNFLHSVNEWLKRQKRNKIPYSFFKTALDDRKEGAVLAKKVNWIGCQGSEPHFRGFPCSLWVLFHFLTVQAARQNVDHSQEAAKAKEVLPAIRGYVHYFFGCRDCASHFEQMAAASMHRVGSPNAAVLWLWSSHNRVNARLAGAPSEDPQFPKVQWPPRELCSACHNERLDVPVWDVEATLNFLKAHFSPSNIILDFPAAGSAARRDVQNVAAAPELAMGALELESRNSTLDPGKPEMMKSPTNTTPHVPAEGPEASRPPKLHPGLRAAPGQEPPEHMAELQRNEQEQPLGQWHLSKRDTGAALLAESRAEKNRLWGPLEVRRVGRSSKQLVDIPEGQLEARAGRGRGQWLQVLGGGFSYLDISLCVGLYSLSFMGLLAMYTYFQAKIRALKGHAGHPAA

The compounds below were run against Sulfhydryl oxidase 1 (Homo sapiens) (UniProt O00391) (assay: QSOX1 binders by thermal stabilization, confirmation, QSOX1 inhibitor project, biophysical, protein thermal shift, single concentration (AID 1347422;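 note: dTm is compound Tm minus mean Tm of DMSO-only wells on that plate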)). Conditions: recombinant hQSOX1 thermal shift, Sypro Orange, at 25 µM, stronger effect = higher value.

SMILES | thermal shift dTm
COc1ccc(C)cc1NC(=O)Nc1ccc(NC(C)=O)cc1 | 0.57 °C
O=C(Nc1cccc(NC(=O)c2ncn[nH]2)c1)c1cccc(Cl)c1 | active: 1.07 °C
Cc1nc(N)sc1-c1nnc(Nc2ccccc2)s1 | active: 2.14 °C
Cc1ccnc(NC(=O)c2sc3nc(-c4ccccc4)cn3c2C)c1 | 0.69 °C
O=C1OC(c2cccs2)=N/C1=C/c1cc(Br)ccc1OCc1ccccc1F | 0.67 °C
CC(=O)c1ccc(NC(=O)c2ccc(N3C(=O)c4cccnc4C3=O)cc2)cc1 | 0.39 °C
COc1ccc(NC(=O)Nc2ccc(N3CCOCC3)cc2)cc1 | active: 1.07 °C
Cc1ccccc1OCc1nc(-c2cccc(NC(=O)c3ccco3)c2)no1 | 0.57 °C
CC(=O)Oc1cccc2ccc(/C=C/c3cccc(Cl)c3)nc12 | 0.06 °C
CCNC(=O)c1cccc(-c2cccc(-c3ccn[nH]3)c2)c1 | 0.04 °C
CC(=O)Nc1ccc(NC(=O)c2nnn(-c3cccc(Cl)c3)c2N)cc1 | 0.55 °C
COc1cc(/C=C/c2ccc3ccccc3n2)c(Cl)cc1OC(C)=O | 0.07 °C
CC(=O)Nc1cccc(NC(=O)c2cc3c(s2)CCCC3)c1 | inactive: 0 °C
Cc1ccc(O)c(NC(=O)CSc2nc3ccccc3[nH]2)c1 | 0.28 °C
CCOC(=O)C(Cc1c[nH]c2ccccc12)NC(=O)c1ccc(C(C)(C)C)cc1 (configuration not stated) | 0.01 °C
O=C(Nc1cccc(Cl)c1)Nc1nnc(-c2ccco2)s1 | 0.2 °C
CC(C)N(Cc1ccccc1)C(=O)COc1ccc(Cl)cc1Br | 0.63 °C
COc1ccc(-c2csc(-c3ccc(OC)c(OC)c3)n2)cc1C | 0.05 °C
Cc1ccccc1NC(=S)NCCC(c1ccccc1)c1ccccc1 | 0.02 °C
NC1=NC(=O)/C(=C/c2ccc(-c3cc([N+](=O)[O-])ccc3O)o2)S1 | active: 1.17 °C
CCCCC1=NN2C(=N)/C(=C/c3ccc(Cl)cc3Cl)C(=O)N=C2S1 | 0.11 °C
Cc1nonc1CC(=O)N1CCc2ccc(NC(=O)Cc3ccccc3F)cc2C1 | 0.29 °C

SMILES | thermal shift dTm
COc1ccc(/C=C(\NC(=O)c2ccccc2)C(=O)NCCc2c[nH]c3ccccc23)cc1 | inactive: -0.13 °C
Cc1ccc(C)c(-n2c(CCC(=O)O)ccc2-c2ccc(Br)cc2)c1 | 0.11 °C
O=C(Nc1nccs1)c1ccc(-c2ccc(F)c(Cl)c2)o1 | 0.15 °C
CCC(=O)NC(=S)Nc1ccc(NC(=O)COc2ccccc2)cc1 | 0.11 °C
COc1cc(/C=N/O)cc(Br)c1OCc1cccc(Cl)c1 | inactive: -0.03 °C
CCCOc1ccc(C(=O)Nc2cccc(NC(C)=O)c2)cc1 | 0.23 °C
CCc1ccc(NC(=O)Nc2cc(F)ccc2F)cc1 | inactive: -15.7 °C
S=C(Nc1ccccc1)N(Cc1ccccc1)Cc1ccccc1 | inactive: -0.13 °C
CCCc1cc(NCc2ccccn2)n2ncc(-c3ccccc3)c2n1 | 0.01 °C
C=CCSC1=N/C(=C\c2cccc(OC3CCCC3)c2)C(=O)S1 | 0.58 °C
Cc1ccc(NC(=O)Nc2ccc(S(=O)(=O)Nc3ccccn3)cc2)cc1 | active: 2.37 °C
O=C(Nc1ccc(S(=O)(=O)N2CCOCC2)cc1)c1cc2ccccc2o1 | 0.14 °C
O=S(=O)(CC(F)(F)F)N1CCc2onc(-c3ccc(F)c(F)c3)c2C1 | 0.93 °C
CC(=O)Nc1ccc(C(=O)Nc2ccccc2)cc1 | active: 1.02 °C
Cc1cccc(C(=O)NC(Nc2ccc(C)cc2C)C(Cl)(Cl)Cl)c1 (configuration not stated) | 0.05 °C
CCOc1ccc(-c2nc3ccccc3c(=O)o2)cc1Cl | 0.86 °C
CC(C)c1ccc(/C=C/C(=O)Nc2ccc(C(C)C)cc2)cc1 | inactive: -0.09 °C
COc1cc(CNc2ccccc2Cl)cc(I)c1O | inactive: -0.09 °C
CCCCOc1ccc(-c2[nH]ncc2Oc2ccccc2)c(O)c1 | 0.16 °C
COc1ccc(C2=N[N+](c3nc(-c4ccc(S(=O)(=O)N5CCCCC5)cc4)cs3)=C(c3ccc(OC)cc3)C2)cc1 | 0.19 °C
Cc1cc(C)cc(OCCNC(=O)c2ccc(Cl)c(Cl)c2)c1 | 0.05 °C
O=C(Nc1cccc(-c2ccco2)c1)C1CCN(C(=O)c2ccoc2)CC1 | active: 1.03 °C

SMILES | thermal shift dTm
NC(=O)c1ccc(NC(=O)c2cccc(C(F)(F)F)c2)cc1 | 0.7 °C
CC1=Nc2ccccc2/C1=C/c1c(O)n(Cc2ccco2)c(=O)[nH]c1=O | 0.93 °C
O=C(NC(=S)Nc1cccc(Cl)c1N1CCOCC1)c1cccs1 | inactive: -0.04 °C
Oc1ccccc1C=Nc1ccc(Cc2ccc(N=Cc3ccccc3O)c(O)c2)cc1O | 0.01 °C
CNS(=O)(=O)c1ccc(NC(=O)c2csc(C)c2C)cc1 | inactive: -0.05 °C
CCOc1ccc(Br)cc1-c1nc2ccccc2c(=O)o1 | 0.43 °C
Cc1c(CC2C(=O)Nc3ccccc32)oc2ccc(F)cc12 (configuration not stated) | 0.32 °C
O=C(Nc1cccc(-c2ccn[nH]2)c1)c1ccc(C2CCCN2)s1 (configuration not stated) | 0.14 °C
Cc1ccccc1-c1nnc(NC(=O)NC(C)c2nc3ccccc3[nH]2)s1 (configuration not stated) | 0.51 °C
CCS(=O)(=O)Nc1ccc(C(=O)Nc2cccc(F)c2)cc1 | 0.38 °C
CN1Cc2ccccc2CC1CNC(=O)c1cn(Cc2ccccc2F)nn1 (configuration not stated) | 0.14 °C
Cc1cc(C)cc(NC(=O)C(C)N2C(=O)c3cccc4cccc2c34)c1 (configuration not stated) | 0.11 °C
COc1ccc(Br)cc1S(=O)(=O)Nc1cccc(O)c1 | 0.09 °C
Oc1ccc(-c2[nH]ncc2Oc2ccc(-c3ccccc3)cc2)c(O)c1 | inactive: -0.17 °C
CCCOc1ccc(Nc2ncnc3ccc(Br)cc23)cc1 | 0.11 °C
Nc1cccc(/C=C/C(=O)c2cccc(N)c2)c1 | inactive: -0.03 °C
CCc1cc(-c2n[nH]c(C)c2Oc2ccc(F)cc2)c(O)cc1OC | 0.02 °C
CN(CCC1CCCCO1)Cc1nc(-c2ccc3c(c2)OCO3)no1 (configuration not stated) | 0.28 °C
O=[N+]([O-])C1=C(Nc2ccc(Cl)c(Cl)c2)CS(=O)(=O)C1 | 0.01 °C
O=C(c1ccc(F)cc1)c1ccc(-c2[nH]c(-c3ccc(Cl)cc3Cl)nc2-c2ccccc2)cc1 | inactive: -0.04 °C
Cc1cccc(NC(=O)NCCc2ccc(O)cc2)c1 | 0.13 °C
Cc1ccc2sc(-c3ccc(NC(=O)CCc4ccccc4)cc3)nc2c1 | 0.4 °C

SMILES | thermal shift dTm
Clc1cccc(OCCCCOc2cccc3cccnc23)c1 | inactive: -0.04 °C
Cc1cc(=O)[nH]c(SCc2ccc(C(=O)Nc3nccs3)cc2)n1 | 0.32 °C
CCOc1ccc(NC(=O)c2ccc(-c3csc(C)n3)cc2)cc1 | 0.15 °C
Cc1cc(Cl)c(Cl)cc1S(=O)(=O)Nc1ccc2cn[nH]c2c1 | active: 1.02 °C
Cc1cccc(N)c1NC(=O)c1ccc(OC(F)(F)F)cc1 | 0.2 °C
CC(=O)c1sc(Nc2ccc(Oc3ccccc3)cc2)nc1C | 0.15 °C
CN1CCN(c2ccc(NC(=O)c3ccc4c(c3)OCCO4)cc2Cl)CC1 | 0 °C
CCN(CC)c1ccc(NC2=NC(c3ccncc3)=[C+]S2)cc1 | inactive: -0.04 °C
COc1ccc(Nc2nc(-c3ccncc3)cs2)cc1 | inactive: -0.08 °C
Cc1ccccc1CNC(=O)/C=C/c1ccc(C(C)(C)C)cc1 | 0.11 °C
CC(=O)Nc1cccc(NC(=O)c2ccc(C)s2)c1 | 0.23 °C
NC(=O)c1ccc(NC(=O)Nc2cc(Cl)ccc2Cl)cc1 | 0.19 °C
Cc1nc(-c2cccc(NC(=O)c3cccs3)c2)cs1 | active: 1.55 °C
Brc1ccc(-c2nc(-c3ccccc3)c(-c3ccc(Br)cc3)[nH]2)cc1 | inactive: -0.09 °C
O=C(NCCc1cccs1)Nc1ccccc1 | 0.28 °C
CC(C)CNC(=S)Nc1ccc(Oc2ccccc2)cc1 | 0.35 °C
CCOc1cc(-c2nc3ccccc3s2)cc(Br)c1OC | 0.4 °C
Cn1nccc1-c1nc(-c2cccc3[nH]ccc23)no1 | 0.23 °C
NC1=NC(=O)/C(=C\c2ccc(-c3ccc(Cl)c(C(=O)O)c3)o2)S1 | active: 1.17 °C
O=C(Nc1ccc(N2CCOCC2)cc1)Nc1ccc2snnc2c1 | inactive: -7.53 °C
COc1ccc(C(=O)c2sc3nc(-c4ccco4)cc(C(F)(F)F)c3c2N)cc1OC | 0.72 °C
CC(C)=CC(=O)Nc1ccc(I)cc1 | 0.21 °C

An excerpt from above in order of length of the SMILES, descending:
SMILES | thermal shift dTm
CN1CCN(c2ccc(NC(=O)c3ccc4c(c3)OCCO4)cc2Cl)CC1 | 0 °C
Cc1cc(Cl)c(Cl)cc1S(=O)(=O)Nc1ccc2cn[nH]c2c1 | active: 1.02 °C
CC(=O)Nc1cccc(NC(=O)c2ccc(C)s2)c1 | 0.23 °C

(continued)

SMILES | thermal shift dTm
COc1ccc(NC(=O)c2ccc(Cl)s2)cc1OC | 0.19 °C
CCCc1ccc(C(=O)Nc2ccc3c(c2)OCCO3)cc1 | 0.09 °C
Clc1ccc(CNc2nc3nonc3nc2N2CCOCC2)s1 | 0.57 °C
CCc1sc(NS(=O)(=O)c2ccccc2)nc1-c1ccccc1 | 0.48 °C
CCOc1cc(C(=S)N2CCOCC2)ccc1OCc1ccc(Br)cc1 | inactive: -0.03 °C
Cc1cccc(C(=O)Nc2cccc(-c3csc(C)n3)c2)c1 | active: 1.13 °C
COc1ccccc1NC(=O)c1ccccc1-c1nc(-c2ccccc2F)no1 | inactive: -0.09 °C
CCC(=O)NC(N(Cc1ccccc1)Cc1ccccc1)C(Cl)(Cl)Cl (configuration not stated) | 0.19 °C
O=C(Nc1ccc(Br)cc1)N1CCN(c2ccccc2)CC1 | inactive: -12.2 °C
CCC(C)c1ccc(NC(=O)NCc2cccs2)cc1 (configuration not stated) | 0.47 °C
C/C(=N\Nc1cc(C)nc(-c2ccccc2O)n1)c1ccccc1 | inactive: -0.04 °C
Cc1ccc(NC(=O)NCCN2CCN(c3ccccc3)CC2)cc1F | 0.23 °C
CCC(C)c1ccc(NC(=S)Nc2ccc(OCc3ccccc3)cc2)cc1 (configuration not stated) | 0.63 °C
CC(=O)N1CCN(c2ccc(NC(=O)/C=C/c3ccccc3)cc2)CC1 | 0.81 °C
O=C(Nc1ccc2c(c1)OCCO2)c1cccc(NC(=O)c2cccs2)c1 | 0.83 °C
Cc1cc2ncn(CCCOc3ccc(Cl)cc3)c2cc1C | 0.11 °C
Cc1ccc(NS(=O)(=O)c2cc(C(=O)Nc3ccc4c(c3)OCO4)ccc2C)c(C)c1 | 0.61 °C
CCc1nn2c(N)c(C#N)nnc2c1-c1ccc(Cl)cc1 | 0.47 °C
COc1ccc(/C=C/c2ccc3cccc(O)c3n2)cc1O | inactive: -22.2 °C

Reprinted from above, 2 compounds:
SMILES | thermal shift dTm
CCCc1ccc(C(=O)Nc2ccc3c(c2)OCCO3)cc1 | 0.09 °C
Clc1ccc(CNc2nc3nonc3nc2N2CCOCC2)s1 | 0.57 °C
